Results are given in words; binding and its absence hold for the method and conditions named. Some entries that bind do so weakly or less than the wild type.
Tests used:
[1] = target: glucocorticoid receptor AF1 (GR107-237) in pJG4-5 (UniProt P06536); assay: modified yeast two-hybrid, qualitative plate beta-galactosidase assay
[2] = target: estrogen receptor alpha (human) (UniProt P03372); assay: yeast two hybrid system

The chains behind the UniProt entries cited, without tags or fusion partners. Where a name states a change or a piece, a line headed by the entry shows the natural chain unless it says otherwise. Residues count along the entry.
UniProt P06536, residues 107-237: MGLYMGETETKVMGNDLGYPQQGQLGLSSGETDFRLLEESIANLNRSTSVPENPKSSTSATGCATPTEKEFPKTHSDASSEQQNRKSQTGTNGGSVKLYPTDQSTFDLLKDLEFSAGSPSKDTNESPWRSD
UniProt P03372: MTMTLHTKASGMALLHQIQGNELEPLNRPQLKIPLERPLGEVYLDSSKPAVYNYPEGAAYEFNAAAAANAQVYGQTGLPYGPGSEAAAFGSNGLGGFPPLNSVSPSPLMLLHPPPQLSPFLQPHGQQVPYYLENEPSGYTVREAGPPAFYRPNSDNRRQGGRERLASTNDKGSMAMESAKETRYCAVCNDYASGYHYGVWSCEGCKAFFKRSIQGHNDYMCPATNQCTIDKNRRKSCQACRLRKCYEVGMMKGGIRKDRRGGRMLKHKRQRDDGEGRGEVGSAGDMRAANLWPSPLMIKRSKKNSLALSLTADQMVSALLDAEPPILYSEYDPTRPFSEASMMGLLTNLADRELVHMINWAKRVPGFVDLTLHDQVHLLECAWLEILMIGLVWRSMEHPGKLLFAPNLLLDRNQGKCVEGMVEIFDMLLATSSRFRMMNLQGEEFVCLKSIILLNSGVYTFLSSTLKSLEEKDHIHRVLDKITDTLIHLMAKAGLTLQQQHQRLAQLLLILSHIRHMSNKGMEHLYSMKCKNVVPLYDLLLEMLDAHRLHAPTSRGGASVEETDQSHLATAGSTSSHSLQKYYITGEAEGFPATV
UniProt P0A7C2: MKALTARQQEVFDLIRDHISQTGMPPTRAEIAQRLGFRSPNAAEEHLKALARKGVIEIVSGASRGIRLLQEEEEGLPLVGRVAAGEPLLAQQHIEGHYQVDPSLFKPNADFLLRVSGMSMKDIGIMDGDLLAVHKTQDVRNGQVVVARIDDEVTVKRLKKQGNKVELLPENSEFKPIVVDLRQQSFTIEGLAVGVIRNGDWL

- binding [1]: binds
- binding [2]: binds
Substance: ART-27 (full length, 1-157; LexA DNA binding domain fusion) (from UniProt P0A7C2 1-202; Q9UBK9 1-157)

From patent US20020137019A1
